These are yes or no findings as the source states them, for the method shown. Some results given as binding are weak or reduced against the parent protein; the word gives no strength.
Molecular target: T1, BioEase-FBXL5 (UniProt Q9UKA1)
T1 sequence (chain, biotin (biotinylated FBXL5, BioEase tag)): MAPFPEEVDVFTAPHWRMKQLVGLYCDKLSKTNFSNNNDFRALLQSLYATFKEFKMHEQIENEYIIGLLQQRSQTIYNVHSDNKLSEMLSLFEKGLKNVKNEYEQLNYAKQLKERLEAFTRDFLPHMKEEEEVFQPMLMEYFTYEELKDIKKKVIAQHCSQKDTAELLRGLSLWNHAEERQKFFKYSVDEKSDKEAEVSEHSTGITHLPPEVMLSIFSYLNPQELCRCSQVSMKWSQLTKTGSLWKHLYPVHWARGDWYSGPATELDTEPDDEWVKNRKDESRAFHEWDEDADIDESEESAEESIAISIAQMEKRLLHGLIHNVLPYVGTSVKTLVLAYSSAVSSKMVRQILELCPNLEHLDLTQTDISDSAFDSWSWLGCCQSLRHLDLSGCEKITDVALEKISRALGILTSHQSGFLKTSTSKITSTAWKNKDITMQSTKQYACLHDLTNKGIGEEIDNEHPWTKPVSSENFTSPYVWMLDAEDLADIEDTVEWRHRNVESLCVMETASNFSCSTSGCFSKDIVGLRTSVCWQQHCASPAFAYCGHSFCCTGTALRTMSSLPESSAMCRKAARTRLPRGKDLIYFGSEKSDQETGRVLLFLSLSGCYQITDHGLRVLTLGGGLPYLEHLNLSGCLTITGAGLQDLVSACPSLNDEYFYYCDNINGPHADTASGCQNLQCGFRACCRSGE
Assay: pull-down

Protein sequences, listed by entry. Tags and fused reporters are not part of them.
UniProt P63208: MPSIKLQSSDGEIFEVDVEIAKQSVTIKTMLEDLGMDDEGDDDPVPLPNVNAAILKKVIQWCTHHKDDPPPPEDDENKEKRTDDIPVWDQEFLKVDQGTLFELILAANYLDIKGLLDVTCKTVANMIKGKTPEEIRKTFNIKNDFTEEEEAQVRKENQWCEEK

- binding: binds
Substance: 3HA-3FLAG-tagged SKP1 (from UniProt P63208 1-163)

Source: publication doi:10.1101/133777
